# Experimental data reported in paper PMC6168633.
# The chains behind the UniProt entries cited, without tags or fusion partners.
# UniProt O35303: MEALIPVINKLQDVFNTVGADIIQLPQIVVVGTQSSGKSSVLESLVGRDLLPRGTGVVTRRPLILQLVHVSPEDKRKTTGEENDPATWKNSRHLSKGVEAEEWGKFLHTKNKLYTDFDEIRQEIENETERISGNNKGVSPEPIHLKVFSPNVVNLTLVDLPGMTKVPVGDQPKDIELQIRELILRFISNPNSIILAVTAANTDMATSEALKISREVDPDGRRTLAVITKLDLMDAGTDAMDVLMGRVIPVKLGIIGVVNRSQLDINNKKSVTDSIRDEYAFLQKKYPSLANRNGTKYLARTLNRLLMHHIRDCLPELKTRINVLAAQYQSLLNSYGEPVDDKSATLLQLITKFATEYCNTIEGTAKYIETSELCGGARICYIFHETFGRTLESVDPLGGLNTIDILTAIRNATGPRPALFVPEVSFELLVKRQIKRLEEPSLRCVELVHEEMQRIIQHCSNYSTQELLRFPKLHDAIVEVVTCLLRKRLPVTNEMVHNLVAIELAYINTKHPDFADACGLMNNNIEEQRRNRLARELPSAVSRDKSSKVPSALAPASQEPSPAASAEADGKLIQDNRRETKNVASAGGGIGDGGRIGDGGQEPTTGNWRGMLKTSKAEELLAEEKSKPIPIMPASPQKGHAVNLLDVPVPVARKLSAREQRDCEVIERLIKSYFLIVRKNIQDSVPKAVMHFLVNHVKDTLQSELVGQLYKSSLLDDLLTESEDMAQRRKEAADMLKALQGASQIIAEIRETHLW
# These are yes or no findings as the source states them, for the method shown. Binding seen in cells or lysates may run through a third protein. Some binding calls cover weakened binding; strength is not graded here.
# Biological target: T1, zinc transporter 4 (ZnT4) (rat (endogenous in hippocampus)) (UniProt O55174)
# T1 sequence: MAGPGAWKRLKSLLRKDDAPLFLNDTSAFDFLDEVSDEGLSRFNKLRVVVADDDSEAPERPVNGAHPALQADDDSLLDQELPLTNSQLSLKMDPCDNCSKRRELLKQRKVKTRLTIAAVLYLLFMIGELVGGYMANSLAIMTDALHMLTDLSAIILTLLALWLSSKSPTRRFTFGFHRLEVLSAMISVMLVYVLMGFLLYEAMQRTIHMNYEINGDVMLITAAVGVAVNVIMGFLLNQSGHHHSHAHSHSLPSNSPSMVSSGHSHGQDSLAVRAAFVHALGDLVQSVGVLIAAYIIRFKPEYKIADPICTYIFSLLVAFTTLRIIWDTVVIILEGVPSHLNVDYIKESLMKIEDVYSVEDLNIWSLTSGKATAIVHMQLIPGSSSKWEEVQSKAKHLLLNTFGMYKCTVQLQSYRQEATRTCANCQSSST
# Assay: co-IP; extracts of rat hippocampus in RIPA lysis buffer; supernatant with ZnT4 antibody (1 ug) or goat IgG (1 ug) 2 h at 4 °C, protein A/G agarose overnight at 4 °C, washed 5 times with lysis buffer; blotted with goat anti-ZnT4 and mouse anti-DRP1
substance,measurement,value
DRP1 (from UniProt O35303 1-755),binding,binds
